# Results deposited as PubChem BioAssay AID493246 (Drosophila RNAi Screening Center, 2011).
# Purpose: 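Genome-wide search for dsRNAs that reduce cell number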 (primary screen)
# Cell system: Drosophila Kc and S2R+ cells
# Reagent: long dsRNA against Drosophila genes
# Detection: 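Raw, unnormalised count of remaining cells in each well; per-plate z-scores of cell number underlie the calls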
# Reading the numbers: Kc cell number and S2R+ cell number: higher = more cells remaining
# Hit rule: 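Counted as a hit if cell number falls by a z-score of at least 3 within its plate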
# The deposit covers about 21,000 reagents; below is a random part of those with a known target gene and a result. Of all reagents, 429 (2%) were called active. 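Values are raw and not normalised between plates; calls rest on per-plate z-scores that were not deposited.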 Reagent sequences are not shown. The record does not give: the amount of reagent, the time to read-out.
Gene,amplicon,"Kc cell number, rep 1","Kc cell number, rep 2","S2R+ cell number, rep 1","S2R+ cell number, rep 2",activity call
CG30289 (GeneID 246532),DRSC03870,5.42e5,,8.74e5,,inactive
kni (GeneID 40287),DRSC11891,1.39e6,1.44e6,1.22e6,1.31e6,inactive
Cyp6a21 (GeneID 36665),DRSC07381,1.70e6,1.63e6,1.27e6,1.34e6,inactive
crp (GeneID 34956),DRSC03515,1.72e6,1.78e6,1.01e6,1.19e6,inactive
Gr97a (GeneID 117338),DRSC13802,1.32e6,1.48e6,1.05e6,1.10e6,inactive
Pez (GeneID 33882),DRSC03397,1.65e6,1.57e6,1.21e6,1.37e6,inactive
Marcal1 (GeneID 33709),DRSC02718,1.51e6,1.46e6,1.08e6,1.22e6,inactive
CG15221 (GeneID 32127),DRSC19659,1.60e6,1.51e6,1.02e6,1.15e6,inactive
CG34221 (GeneID 5740574),DRSC06150,1.53e6,1.56e6,1.16e6,1.23e6,inactive
CG32147 (GeneID 251690),DRSC09346,1.55e6,1.61e6,1.15e6,1.34e6,inactive
CG10413 (GeneID 35111),DRSC02052,1.21e6,1.45e6,1.41e6,1.21e6,inactive
SC35 (GeneID 53444),DRSC02502,1.40e6,1.42e6,9.61e5,1.10e6,inactive
SC35 (GeneID 53444),DRSC03425,1.46e6,1.56e6,1.26e6,1.35e6,inactive
Nep4 (GeneID 42449),DRSC15539,1.49e6,1.57e6,1.17e6,1.25e6,inactive
Rh4 (GeneID 39887),DRSC11268,1.38e6,1.67e6,1.41e6,1.47e6,inactive
CNMaR (GeneID 39127),DRSC08992,1.29e6,1.33e6,1.13e6,1.30e6,inactive
CNMaR (GeneID 39127),DRSC10224,1.37e6,1.34e6,1.39e6,1.44e6,inactive
Dim1 (GeneID 33645),DRSC00563,1.45e6,1.39e6,9.31e5,1.08e6,inactive
tmod (GeneID 43633),DRSC13993,1.51e6,1.67e6,1.05e6,1.13e6,inactive
tmod (GeneID 43633),DRSC14314,1.51e6,1.60e6,9.69e5,1.08e6,inactive
tmod (GeneID 43633),DRSC15076,1.61e6,1.60e6,1.02e6,1.09e6,inactive
tmod (GeneID 43633),DRSC17062,5.39e5,,9.15e5,,inactive
CG15571 (GeneID 31365),DRSC18059,1.48e6,1.49e6,9.99e5,1.11e6,inactive
CG5897 (GeneID 39346),DRSC10555,1.52e6,1.51e6,1.40e6,1.49e6,inactive
hdly (GeneID 42478),DRSC15849,1.25e6,1.18e6,1.11e6,1.25e6,inactive
Nep3 (GeneID 33005),DRSC20685,1.45e6,1.46e6,1.07e6,1.07e6,inactive
TBC1d7 (GeneID 42869),DRSC15985,1.36e6,1.39e6,9.76e5,1.07e6,inactive
CG15279 (GeneID 34863),DRSC01935,1.36e6,1.53e6,1.38e6,1.22e6,inactive
CG13046 (GeneID 39791),DRSC09927,1.53e6,1.59e6,1.36e6,1.45e6,inactive
CG11837 (GeneID 43429),DRSC14397,4.67e5,,7.42e5,,inactive
CG14644 (GeneID 40536),DRSC12230,1.33e6,1.58e6,1.23e6,1.33e6,inactive
CG14252 (GeneID 43238),DRSC14747,1.48e6,1.51e6,1.00e6,1.11e6,inactive
Ggamma30A (GeneID 45234),DRSC02715,1.42e6,1.53e6,1.20e6,1.34e6,inactive
Ggamma30A (GeneID 45234),DRSC03331,1.43e6,1.48e6,1.18e6,1.26e6,inactive
Zmynd10 (GeneID 39481),DRSC09826,1.38e6,1.33e6,1.21e6,1.25e6,inactive
CG33966 (GeneID 3885642),DRSC08256,1.54e6,1.29e6,9.95e5,1.17e6,inactive
ODA-Dnal1 (GeneID 35962),DRSC07270,1.55e6,1.57e6,1.35e6,1.39e6,inactive
CG32391 (GeneID 318007),DRSC08865,1.62e6,1.92e6,1.24e6,1.34e6,inactive
CG13482 (GeneID 39577),DRSC10024,1.55e6,1.61e6,1.33e6,1.31e6,inactive
skl (GeneID 40016),DRSC10050,1.22e6,1.32e6,1.31e6,1.43e6,inactive
CG17575 (GeneID 36414),DRSC06682,1.64e6,1.71e6,1.36e6,1.55e6,inactive
Polr2M (GeneID 42309),DRSC15513,1.64e6,1.62e6,1.12e6,1.20e6,inactive
Sema5c (GeneID 37066),DRSC11279,1.29e6,1.24e6,1.22e6,1.32e6,inactive
CG10317 (GeneID 41987),DRSC14229,1.25e6,1.26e6,1.17e6,1.36e6,inactive
CG14605 (GeneID 40867),DRSC12549,1.52e6,1.56e6,1.34e6,1.48e6,inactive
CG14086 (GeneID 40100),DRSC10090,1.40e6,1.59e6,1.22e6,1.35e6,inactive
Mi-2 (GeneID 40170),DRSC11222,1.79e6,1.90e6,1.03e6,1.16e6,inactive
Ser7 (GeneID 31917),DRSC18201,5.70e5,,8.79e5,,inactive
CG5282 (GeneID 40256),DRSC11775,1.44e6,1.50e6,1.26e6,1.29e6,inactive
CG7606 (GeneID 8673956),DRSC13246,1.38e6,1.41e6,9.92e5,1.07e6,inactive
CG7606 (GeneID 8673956),DRSC16268,1.45e6,1.53e6,1.02e6,9.97e5,inactive
Trm7-32 (GeneID 42056),DRSC15741,1.54e6,1.62e6,1.25e6,1.26e6,inactive
LKRSDH (GeneID 34064),DRSC03015,1.26e6,1.44e6,4.70e5,5.28e5,inactive
CG34462 (GeneID 5740319),DRSC10768,1.48e6,1.68e6,1.05e6,1.15e6,inactive
Ir7a (GeneID 31686),DRSC17866,1.52e6,1.47e6,1.07e6,1.30e6,inactive
CG11597 (GeneID 39337),DRSC09847,1.47e6,1.59e6,1.39e6,1.29e6,inactive
Eig71Eh (GeneID 39709),DRSC11155,1.32e6,1.42e6,1.23e6,1.36e6,inactive
Lrch (GeneID 35041),DRSC02996,1.29e6,1.45e6,1.27e6,1.18e6,inactive
mRpS33 (GeneID 41991),DRSC14239,1.59e6,1.62e6,1.05e6,1.51e6,inactive
CG30222 (GeneID 50129),DRSC04125,1.78e6,1.92e6,1.45e6,3.90e5,inactive
CG30222 (GeneID 50129),DRSC04262,1.73e6,1.79e6,1.24e6,2.58e5,inactive
dj (GeneID 40838),DRSC12625,1.59e6,1.89e6,1.30e6,1.34e6,inactive
Osi24 (GeneID 40755),DRSC12275,1.59e6,1.77e6,1.32e6,1.45e6,inactive
CG3847 (GeneID 31577),DRSC17444,1.04e6,1.26e6,1.10e6,1.14e6,inactive
CG3847 (GeneID 31577),DRSC18327,5.36e5,,8.88e5,,inactive
CG14070 (GeneID 34508),DRSC02373,1.54e6,1.58e6,1.19e6,1.23e6,inactive
CG15870 (GeneID 36446),DRSC06588,1.57e6,1.54e6,1.17e6,1.25e6,inactive
serp (GeneID 40150),DRSC11035,1.29e6,1.40e6,1.29e6,1.33e6,inactive
serp (GeneID 40150),DRSC11036,1.33e6,1.46e6,1.31e6,1.37e6,inactive
ps (GeneID 44258),DRSC15149,1.55e6,1.54e6,1.27e6,1.43e6,inactive
ps (GeneID 44258),DRSC15151,1.10e6,1.16e6,1.02e6,1.19e6,inactive
ps (GeneID 44258),DRSC15152,1.23e6,1.22e6,7.51e5,8.71e5,active
ps (GeneID 44258),DRSC16388,1.58e6,1.06e6,1.06e6,1.19e6,inactive
CG10470 (GeneID 35174),DRSC02061,1.50e6,1.58e6,1.25e6,3.00e5,inactive
spen (GeneID 44205),DRSC00839,7.52e5,8.25e5,3.21e5,3.77e5,inactive

Taken from above:
Value for CG34462 (GeneID 5740319) [DRSC10768] under “Kc cell number, rep 1”: 1.48e6
CG5282 (GeneID 40256) [DRSC11775], Kc cell number, rep 2: 1.50e6
Under “Kc cell number, rep 2”, Mi-2 (GeneID 40170) [DRSC11222] shows 1.90e6
Under “Kc cell number, rep 1”, Ser7 (GeneID 31917) [DRSC18201] reads 5.70e5
Under “activity call”, CG32147 (GeneID 251690) [DRSC09346] reads inactive
Entry of Lrch (GeneID 35041) [DRSC02996] under “Kc cell number, rep 2”: 1.45e6
